# Measured values reported in the odorant receptor screen of Mainland et al. (2015).
# Where “and” joins values, the source holds several entries; their conditions need not be identical. Equal entries are not always repeated. This is one part of the list. Single wells; the ratio to wells without odorant was worked out here, and repeats agree poorly.
# Columns and labels:
# Experiment in all cases: odorant receptor activation (CRE luciferase / Renilla) (fold of no-odor wells); higher = more activation
# Details in all cases: 100 µM
# [1] = system: OR10A2 H43R/H207R/K258T clone 1498
# OR10A2 clone 1171 = system: OR10A2 clone 1171
# OR10A3 clone 1416 = system: OR10A3 clone 1416
# OR10A4 R262Q clone 1538 = system: OR10A4 R262Q clone 1538
# OR10A5 clone 1723 = system: OR10A5 clone 1723
# OR10A6 clone 1219 = system: OR10A6 clone 1219
# OR10A7 clone 1252 = system: OR10A7 clone 1252
# [2] = system: OR10AD1 R166Q/S177N/W198R clone 1524
# OR10AG1 clone 1251 = system: OR10AG1 clone 1251
# [3] = system: OR10C1 F60L/P174Q/M246V clone 1366
# OR10C1 clone 1065 = system: OR10C1 clone 1065
# OR10G3 S73G clone 1272 = system: OR10G3 S73G clone 1272
# [4] = system: OR10G4 A9V/M134V/V195E/R235G/K295Q clone 1119
# OR10G6 clone 1108 = system: OR10G6 clone 1108
# OR10G7 clone 1589 = system: OR10G7 clone 1589
# OR10G8 clone 1396 = system: OR10G8 clone 1396
# [5] = system: OR10G9 A90T/M134V clone 1192
# OR10H1 clone 1291 = system: OR10H1 clone 1291
# OR10H2 L40Q clone 1461 = system: OR10H2 L40Q clone 1461
# OR10H3 clone 1525 = system: OR10H3 clone 1525
SMILES,odorant receptor activation [1],odorant receptor activation (OR10A2 clone 1171),odorant receptor activation (OR10A3 clone 1416),odorant receptor activation (OR10A4 R262Q clone 1538),odorant receptor activation (OR10A5 clone 1723),odorant receptor activation (OR10A6 clone 1219),odorant receptor activation (OR10A7 clone 1252),odorant receptor activation [2],odorant receptor activation (OR10AG1 clone 1251),odorant receptor activation [3],odorant receptor activation (OR10C1 clone 1065),odorant receptor activation (OR10G3 S73G clone 1272),odorant receptor activation [4],odorant receptor activation (OR10G6 clone 1108),odorant receptor activation (OR10G7 clone 1589),odorant receptor activation (OR10G8 clone 1396),odorant receptor activation [5],odorant receptor activation (OR10H1 clone 1291),odorant receptor activation (OR10H2 L40Q clone 1461),odorant receptor activation (OR10H3 clone 1525)
C=CCSCC=C [diallyl sulfide],1.36,0.945,1.14,1.53,0.722,1.33,1.01,1.18,0.901,0.99,1.2,1.06,1.22,0.943,0.573,1.21,0.987,0.772,1.46,1.44
C=CCc1ccc(OC(C)=O)c(OC)c1 [eugenol acetate],1.81,1.53,1.71,1.62,2.03,2.01,1.85,1.84,1.68,1.39,1.68,1.96,1.32,1.95,1.22,1.71,1.68,1.42,1.8,1.63
CCCCCCCOC(C)=O [heptyl acetate],–,0.863,1.29,0.712 and 1.48,0.826,1.05,0.879 and 0.959,0.718 and 1.22,1.43 and 1.31,1.02,1.84,0.877 and 1.33,1.29,1.03,1.23,0.931,0.58,0.963 and 0.744,0.69 and 1.27,0.635 and 1.24
CC=Cc1ccc(O)c(OC)c1 [isoeugenol],0.962 and 2.56,1.21,1.8,1.26 and 2.64,3.77,1.85,1.38 and 1.09,1.81 and 2.04,1.1 and 2.08,1.6,2.42,1.07 and 2.55,6.79,1.48,14.1,0.945,1.43,1.46 and 0.916,0.976 and 2.42,1.11 and 2.3
CC12C=CCC1C1CCC3CC(=O)CCC3(C)C1CC2 (stereo unspecified) [androstenone],0.834,4.98,1.13,1.1,–,5.71,1.38,1.08,1.4,1.48,1.7,1.29,–,21,–,1.19,4.49,1.15,1.07,1.1
CCCCCCC=O [heptaldehyde],–,0.554 and 0.776,0.995 and 1.04,0.598 and 1.26,0.946,0.46 and 0.991,–,–,0.617 and 0.673 and 0.937,0.945 and 0.949,0.846 and 1.86,0.734 and 0.871 and 0.85,2.29,1.15 and 1.13,2.28,0.974 and 0.725,0.305 and 0.681,0.652 and 1.02 and 0.92,–,–
CCCCCC(C)=O [2-heptanone],1.18 and 0.836,1.12,1.14,–,–,1.13,0.578,1.02 and 0.624,2.98,0.904,0.786,1.86,–,0.828,–,0.897,1.23,1.45,1.37 and 0.874,0.935 and 0.528
"CC1CCC(C(C)C)C(O)C1 (single isomer, unassigned; (+)) [(+)-menthol]",0.921,1.03,0.962,1.17,0.691,0.787,1.22,1.2,1.24,2.19,2.95,0.929,0.942,31.4,0.708,0.84,1.29,0.837,1.07,1.23
CCCCCOC(C)=O [n-amyl acetate],0.556 and 0.972,0.682,0.734,–,1.37,0.528,0.251,1.1 and 0.819,0.927,0.744,1.19,0.518,1.12,2.06,1.15,0.81,0.632,0.677,0.611 and 0.943,1.43 and 0.749
CC(=O)OCC=C(C)CCC=C(C)C [geranyl acetate],–,1.05,1.19,0.818 and 1.92,1.03,1.72,1.16 and 1.13,1.22 and 1.39,0.788 and 1.22,1.27,1.98,0.931 and 1.52,3.46,1.8,4.07,0.994,0.861,1.02 and 0.886,0.82 and 1.18,0.63 and 1.43
CC(=O)c1ccccc1 [acetophenone],0.796 and 1.01,1.26,0.941,–,–,1.21,0.851,1.05 and 0.614,2.82,0.84,0.709,3.99,–,1.04,–,0.78,1.08,2.18,1.25 and 0.885,1.08 and 0.674
COc1cc(C=O)ccc1O [vanillin],0.835,0.966,0.977,1.2,0.344,0.954,1.05,1.05,1.05,0.88,0.805,6,2.08,0.915,1.35,0.924,1.45,1.01,1.04,1
CCCCCCCC=CC=O [2-decenal],1.24,0.941,0.971,1.25,0.972,0.569,1.49,1.47,1.85,1.75,6.15,1.64,1.01,42,1.49,1.02,1.12,0.893,1.34,1.9
COc1ccccc1O [guaiacol],–,0.9,0.881,0.741 and 1.23,0.785,1.02,1.19 and 0.998,0.835 and 1.18,0.734 and 1.19,0.891,9.03,1.27 and 1.15,1.93,2.03,8.59,0.67,1.67,1.04 and 0.884,0.702 and 1.12,0.687 and 1.14
CCCCCCOC(=O)CCC [hexyl butyrate],0.343 and 0.836,1.23,0.805,1.02 and 1.19,0.941,0.884,0.72 and 0.882,0.935 and 0.912,0.71 and 0.796,0.833,1.12,1.25 and 0.843,0.863,1.02,0.753,0.684,0.713,1.11 and 0.901,0.759 and 1.01,0.988 and 0.874
CC12C=CCC1C1CCC3=CC(=O)CCC3(C)C1CC2 (stereo unspecified) [androstadienone],0.433 and 1.29,1.02,0.942,0.785 and 1.44,–,1.17,1.11 and 1.1,1.09 and 1.18,0.982 and 1.01,0.983,2.83,1.23 and 0.947,–,1.43,–,0.723,0.759,0.848 and 0.988,0.729 and 1.34,0.904 and 1.47

SMILES,odorant receptor activation [1],odorant receptor activation (OR10A2 clone 1171),odorant receptor activation (OR10A3 clone 1416),odorant receptor activation (OR10A4 R262Q clone 1538),odorant receptor activation (OR10A5 clone 1723),odorant receptor activation (OR10A6 clone 1219),odorant receptor activation (OR10A7 clone 1252),odorant receptor activation [2],odorant receptor activation (OR10AG1 clone 1251),odorant receptor activation [3],odorant receptor activation (OR10C1 clone 1065),odorant receptor activation (OR10G3 S73G clone 1272),odorant receptor activation [4],odorant receptor activation (OR10G6 clone 1108),odorant receptor activation (OR10G7 clone 1589),odorant receptor activation (OR10G8 clone 1396),odorant receptor activation [5],odorant receptor activation (OR10H1 clone 1291),odorant receptor activation (OR10H2 L40Q clone 1461),odorant receptor activation (OR10H3 clone 1525)
O=CCc1ccccc1 [phenyl acetaldehyde],1.27,0.969,1.37,1.34,2.04,1.05,1.14,1.12,1.54,1.5,0.836,1.3,1.25,1.02,1.55,1.78,0.854,1.13,1.02,1.07
C=CCc1ccc(O)c(OC)c1 [eugenol],0.997 and 1.4 and 1.57,2.69 and 1.04,1.57 and 1.4,1.59,0.85,3.15 and 1.7,0.659 and 1.41,2.15 and 1.03 and 1.29,2.07 and 1.14,1.26 and 1.37,0.653 and 1.59,–,1.16,2.61 and 1.41,1.39,1.3 and 1.27,1.36 and 1.1,1.67 and 1.26,1.36 and 1.33 and 1.38,2.19 and 0.811 and 1.31
CCCCO [1-butanol],1.03,1.13,0.779,1.09,0.899,0.751,1.41,1.36,1.49,1.69,2.77,1.22,0.905,34.3,0.785,0.847,1.01,0.884,1.37,1.18
C=CCc1ccc(OC)c(OC)c1 [eugenol methyl ether],1.24,1.38,1.9,1.65,0.965,1.67,1.36,1.31,1.27,1.14,1.69,1.55,1.52,1.75,7.23,1.44,1.36,1.5,1.66,1.28
O=C1CCCCC1 [Cyclohexanone],0.473 and 0.974,0.93,0.774,–,–,1.15,0.272,1.24 and 1.02,0.578,0.665,0.162,0.728,–,2.45,–,0.948,0.811,0.587,0.785 and 1.09,1.36 and 0.792
C=C(C)C1CC=CCC1 (stereo unspecified) [r-limonene],1.02 and 0.588 and 1.15,1.07 and 0.544,1.28 and 0.775,1.28,1.15,1.07 and 0.584,–,0.909 and 1.23 and 0.714,0.875 and 0.445,1.11 and 0.946,0.923 and 1.04,0.814 and 0.448,1.08,1.06 and 2.51,1.26,1.28 and 0.85,0.901 and 0.46,1.1 and 0.379,0.877 and 0.706 and 0.926,1 and 1.01 and 0.726
COC(=O)c1ccccc1 [methyl benzoate],0.491 and 1.05,1.13,0.758,–,–,0.82,0.28,1.11 and 0.853,1.55,0.675,0.889,1.1,–,1.24,–,0.83,0.826,0.851,0.852 and 1.07,1.35 and 0.893
CC1=NC(C)SC1C (stereo unspecified),1.06 and 1,1.25,1.08,–,–,1.35,0.595,1.02 and 0.862,2.08,0.868,0.679,1.95,–,1.94,–,0.986,0.817,1.37,1.21 and 1,1.05 and 0.982
CC(C)CCC(=O)O [4-methylvaleric acid],1.02,0.902,0.916,0.932,0.785,0.753,1.4,1.12,1.4,1.8,2.01,1.35,1.41,18.4,4.84,1.38,0.697,1.2,0.986,1.09
CC(C)(O)CCCC1=CCC(C=O)CC1 (stereo unspecified) [lyral],–,–,–,–,1.29,–,–,–,–,–,–,–,1.41,–,1.21,–,–,–,–,–
CCCCCCCC=O [octyl aldehyde],0.851,0.93,0.664,1.08,0.831,1.14,1,1.02,0.97,0.799,0.918,1.24,0.983,1.27,4.41,0.675,1.19,1.04,0.864,0.953
CC(C)(C)c1ccc(CCC=O)cc1 [bourgeonal],0.844,0.728,0.136,0.907,–,0.678,0.802,0.923,0.844,0.161,0.901,0.783,–,0.872,–,0.283,0.85,1.05,1.2,0.7
CC1COCc2cc3c(cc21)C(C)(C)C(C)C3(C)C (stereo unspecified) [galaxolide],–,0.725,3.19,4.67 and 4.51,0.334 and 0.487,3.16,–,7.06 and 5.47,1.44 and 3.44,4.64,10.2,–,0.581 and 1.55,3.79,1.99 and 2.06,2.34,4.1,–,5.92 and 4.23,–
COc1cc(C)ccc1O [2-methoxy-4-methylphenol],0.722,1,0.785,1.01,0.85,0.75,1.04,0.834,1.43,1.57,2.31,2.08,3.71,18.9,10.7,1.19,1.47,1.22,0.96,0.821
C=C(C)C1CCC2=CC(=O)CC(C)C2(C)C1 (stereo unspecified) [amyl laurate],–,–,–,–,1.49,–,–,–,–,–,–,–,2.35,–,1.36,–,–,–,–,–

# 3 structures out of the list, arranged by molar mass, ascending.
SMILES,odorant receptor activation [1],odorant receptor activation (OR10A2 clone 1171),odorant receptor activation (OR10A3 clone 1416),odorant receptor activation (OR10A4 R262Q clone 1538),odorant receptor activation (OR10A5 clone 1723),odorant receptor activation (OR10A6 clone 1219),odorant receptor activation (OR10A7 clone 1252),odorant receptor activation [2],odorant receptor activation (OR10AG1 clone 1251),odorant receptor activation [3],odorant receptor activation (OR10C1 clone 1065),odorant receptor activation (OR10G3 S73G clone 1272),odorant receptor activation [4],odorant receptor activation (OR10G6 clone 1108),odorant receptor activation (OR10G7 clone 1589),odorant receptor activation (OR10G8 clone 1396),odorant receptor activation [5],odorant receptor activation (OR10H1 clone 1291),odorant receptor activation (OR10H2 L40Q clone 1461),odorant receptor activation (OR10H3 clone 1525)
C=C(C)C1CC=CCC1 (stereo unspecified) [r-limonene],1.02 and 0.588 and 1.15,1.07 and 0.544,1.28 and 0.775,1.28,1.15,1.07 and 0.584,–,0.909 and 1.23 and 0.714,0.875 and 0.445,1.11 and 0.946,0.923 and 1.04,0.814 and 0.448,1.08,1.06 and 2.51,1.26,1.28 and 0.85,0.901 and 0.46,1.1 and 0.379,0.877 and 0.706 and 0.926,1 and 1.01 and 0.726
COc1cc(C)ccc1O [2-methoxy-4-methylphenol],0.722,1,0.785,1.01,0.85,0.75,1.04,0.834,1.43,1.57,2.31,2.08,3.71,18.9,10.7,1.19,1.47,1.22,0.96,0.821
C=CCc1ccc(O)c(OC)c1 [eugenol],0.997 and 1.4 and 1.57,2.69 and 1.04,1.57 and 1.4,1.59,0.85,3.15 and 1.7,0.659 and 1.41,2.15 and 1.03 and 1.29,2.07 and 1.14,1.26 and 1.37,0.653 and 1.59,–,1.16,2.61 and 1.41,1.39,1.3 and 1.27,1.36 and 1.1,1.67 and 1.26,1.36 and 1.33 and 1.38,2.19 and 0.811 and 1.31
